This note sets out measurements from publication PMC7819943, “Rice protein-binding microarrays: a tool to detect cis-acting elements near promoter regions in rice”.

Amino acid sequences for entries named in this document (tags omitted).
UniProt Q0JBA9, entry or part of it: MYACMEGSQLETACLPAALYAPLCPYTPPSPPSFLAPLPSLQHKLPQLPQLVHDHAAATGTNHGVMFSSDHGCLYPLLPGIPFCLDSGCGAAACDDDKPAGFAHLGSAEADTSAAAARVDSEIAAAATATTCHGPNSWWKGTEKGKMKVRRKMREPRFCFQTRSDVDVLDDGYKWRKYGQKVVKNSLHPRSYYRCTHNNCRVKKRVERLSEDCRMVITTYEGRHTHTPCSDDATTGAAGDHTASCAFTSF

This is one part of the list.

This test addresses OsWRKY34 (Oryza sativa, UniProt Q0JBA9 1-250). As to the kind of experiment: protein-binding microarray (RPBM); PBS, 2% BSA, 51.3 ng/ul salmon testes DNA, 50 uM zinc acetate, 200 nM TF, 25 C, 1 h; high values mean tight binding. The conditions noted are these: protein: recombinant; tags: N-terminal polyhistidine and DsRed monomer fusion (pET32a); label: CyDye5-dUTP incorporated in the synthesized complementary strand; 3' TTTTT single-stranded linker to array surface; dsDNA, one strand shown. The gist of the method:
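Transcription factors were each fused at the N-terminus to a polyhistidine tag plus DsRed and expressed in E. coli BL21-CodonPlus before Ni–NTA purification. Binding to a double-stranded custom Agilent array was carried out with 200 nM protein at 25 °C for 1 h in PBS, 2% BSA, salmon testes DNA and 50 µM zinc acetate. The binding signal is per-feature fluorescence intensity, in arbitrary units, on an Axon 4000B scanner.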
As for “AACAGGAGACTGGCTACTTACTTGCGCTTCTCCATTTCTGCGGAGTCACCTAGTGCAG”, the binding signal was 8670 fluorescence intensity (a.u.).

Turning to “TATACTCTACTATCCATCATCGCCGTTGTGCACAGGGATCCGGAGTCACCTAGTGCAG”, the binding signal was 8320 fluorescence intensity (a.u.).

As to “ATAAAAATTAAGGGTGGGCTTAAAGTCGAAGTCAACAAGACGGAGTCACCTAGTGCAG”, the binding signal is 10000 fluorescence intensity (a.u.).

Consider “GACACATACCTAACAAACTGTGACAGCCACAAGTATGATGCGGAGTCACCTAGTGCAG”, for which the binding signal was 8210 fluorescence intensity (a.u.).

Turning to “TGTCATCAAATTGGCATTCATAGCGCTATGTTCATATGTTCGGAGTCACCTAGTGCAG”, the binding signal is 8430 fluorescence intensity (a.u.).

On to “TCGCTCTGGCGGCCAGCATCTGAGTAGAATATTCTTCCTTCGGAGTCACCTAGTGCAG”, for which the binding signal is 8280 fluorescence intensity (a.u.).

As to “GCCGCCGCATGCCACCTCCTCGCCGCCCGTCGCGTCAACGCGGAGTCACCTAGTGCAG”, the binding signal was 9610 fluorescence intensity (a.u.).

For the sequence “TGCTTTTGCTCATGTTTATTGGTGGAATGGACGGTACTCTCGGAGTCACCTAGTGCAG”, the binding signal was 10600 fluorescence intensity (a.u.).

Regarding “ATTGTATTTTTCAACTTCGTGAATTCAGCTATGGTTCAAACGGAGTCACCTAGTGCAG”, the binding signal was 8490 fluorescence intensity (a.u.).

Regarding “TACCTCTCTTTTATTGTCTCCTGTAAAGTTTTATTTATATCGGAGTCACCTAGTGCAG”, the binding signal was 13600 fluorescence intensity (a.u.).

For “CCGCCGCCGCCGCCGCCACCGTCCTGCTGCTTCCGCCGCCCGGAGTCACCTAGTGCAG”, the binding signal was 11200 fluorescence intensity (a.u.).

For the sequence “GCTCACTCCATCCCTCAACTGCCCAGTTTCCACGACTCGCCGGAGTCACCTAGTGCAG”, the binding signal was 9600 fluorescence intensity (a.u.).

With “ACCGTCGTCCTCTGCACAAGCCGCCGCGTCCACCCTCTCCCGGAGTCACCTAGTGCAG”, the binding signal was 9550 fluorescence intensity (a.u.).

For the sequence “GCGCAACCACCGCTCTCCTTTCTTTTTTTTTTCCTTCTCTCGGAGTCACCTAGTGCAG”, the binding signal was 8730 fluorescence intensity (a.u.).

Consider “TTGTATTCGATAATATTCGATTCCGTTTTCGTATCCGGGTCGGAGTCACCTAGTGCAG”, for which the binding signal is 9390 fluorescence intensity (a.u.).

With “CGTTTCACCTGTGTCAATTTTCACTTCACCTTCACTGTCTCGGAGTCACCTAGTGCAG”, the binding signal is 8540 fluorescence intensity (a.u.).

Turning to “TGGGGAGAGTGTGTGCGTGTGTGTGTGTGATTCTCCAATGCGGAGTCACCTAGTGCAG”, the binding signal is 8870 fluorescence intensity (a.u.).

For the sequence “GAGACATTGTATCACCGGTCTTGCACTAGCGGAACTTCCGCGGAGTCACCTAGTGCAG”, the binding signal is 8470 fluorescence intensity (a.u.).

In the case of “ATGTCGCCAAGCTCCTTCGCCGCCGTCGCTTGCTACTTCCCGGAGTCACCTAGTGCAG”, the binding signal was 10400 fluorescence intensity (a.u.).

In the case of “CATTTTTTTCCTGCAGGCTCATGAATCCGTGGTCCTGGAGCGGAGTCACCTAGTGCAG”, the binding signal was 9090 fluorescence intensity (a.u.).

Turning to “TTTTCTTTTTTGGAGTCTATTCCGGTTTAGTTAGTCCCTTCGGAGTCACCTAGTGCAG”, the binding signal is 8510 fluorescence intensity (a.u.).

Turning to “GCTTCTTCCGTTGCAATTCCATTCTCCTCTCTCTCCTGCTCGGAGTCACCTAGTGCAG”, the binding signal was 11400 fluorescence intensity (a.u.).

Take “ACGGTGGCGGGGATGTGGAGGGAGGTGCAGGGGTGCGGGGCGGAGTCACCTAGTGCAG”: the binding signal was 22600 fluorescence intensity (a.u.).

“CACCATACATGTCATCTGCACTGGACCCCTGCGCGATTTCCGGAGTCACCTAGTGCAG”: the binding signal was 10600 fluorescence intensity (a.u.).

Consider “TCCTGGTCCCAATCCGCCATGCCACCGTCACCGTCACCTCCGGAGTCACCTAGTGCAG”, for which the binding signal is 13400 fluorescence intensity (a.u.).

“TTTCAACCAACTACCTACTCTTTTATTTTAGCTTTCTTTTCGGAGTCACCTAGTGCAG”: the binding signal is 11000 fluorescence intensity (a.u.).

Take “AATATGCTCTTTATTAAGACTACACGCTTGTCCTAAACTTCGGAGTCACCTAGTGCAG”: the binding signal is 8590 fluorescence intensity (a.u.).

Turning to “CCCATTTCCTTCATACCAGTGATATGTTCATACCAGTACTCGGAGTCACCTAGTGCAG”, the binding signal is 9990 fluorescence intensity (a.u.).

On to “GCCGACGACCTGCCCACCTCCGTCCACGACATCTCCGTCACGGAGTCACCTAGTGCAG”, for which the binding signal is 8650 fluorescence intensity (a.u.).

In the case of “GCTCGGGACCTTATCGCCGTCTCGGCCTCACTCCGGCTGCCGGAGTCACCTAGTGCAG”, the binding signal is 8720 fluorescence intensity (a.u.).

Turning to “TAGTTCAACTATTGCTGCATCGCACCGTCGACTAGTCCCGCGGAGTCACCTAGTGCAG”, the binding signal is 10900 fluorescence intensity (a.u.).

For “ACATTTAATTCCCCAGCTAGCAACCGCCGGCCACCTCTCTCGGAGTCACCTAGTGCAG”, the binding signal was 8410 fluorescence intensity (a.u.).

Take “TTTGTTTTTTTTTTCATTTCTGTTGGCTCTTCACATGTACCGGAGTCACCTAGTGCAG”: the binding signal was 9510 fluorescence intensity (a.u.).

As to “CTGTATATGTTTAGTCATGCTATGTCTGCCTTTTAGTTTTCGGAGTCACCTAGTGCAG”, the binding signal was 10300 fluorescence intensity (a.u.).

On to “CATAACACTGTAGTTTTCTATTTTGCTTGATCTTCTGTATCGGAGTCACCTAGTGCAG”, for which the binding signal was 8150 fluorescence intensity (a.u.).

Take “CCTTTTGTTTTTGGGGCTTGTAGTTTTTGGAAATTTGGGGCGGAGTCACCTAGTGCAG”: the binding signal is 18300 fluorescence intensity (a.u.).

As to “TGGGCATTTCGCGTATGATTATGGTTCTTTTTGCACAGCTCGGAGTCACCTAGTGCAG”, the binding signal was 9360 fluorescence intensity (a.u.).

Consider “AACAATTCTGTAACTTCTATTTTTTTCCTTTGACTTCCCACGGAGTCACCTAGTGCAG”, for which the binding signal was 8720 fluorescence intensity (a.u.).

For “GGGCCCATGTTGCCAGCCGACGCCGTCCACCCATTCCTTACGGAGTCACCTAGTGCAG”, the binding signal was 10100 fluorescence intensity (a.u.).

Take “GGTTATACCTCCCGACACCGGCTGTCCACTTCGCTCTGCTCGGAGTCACCTAGTGCAG”: the binding signal is 9160 fluorescence intensity (a.u.).

For “CCCCGTTCACGCTGCGCCACCGCCTCCGCCTCCGTCGACTCGGAGTCACCTAGTGCAG”, the binding signal is 10500 fluorescence intensity (a.u.).

Consider “TCGTGACAAAGTTACTTCCGTTTTGTTTTTAGATATTTTTCGGAGTCACCTAGTGCAG”, for which the binding signal is 8160 fluorescence intensity (a.u.).
